Measurements as given in US20130022546A1.

Molecular target: AA amyloid deposits in mice (TRIAD murine model of systemic AA amyloidosis) (mouse)
Assay: in vivo imaging with 125I-p5

**Q.** Which binding does the source give for GGGYSKAQKAQAKQAKQAQKAQKAQAKQAKQ (125I on tyrosine) [peptide p5 (also called p31-GGGY)] here?
**A.** The binding was “binds”.

These are yes or no findings as the source states them, for the method shown. Binding calls can cover weak binding; strength is not graded here.
